Measured values taken from PMC5900714.
Results are given in words; binding and its absence hold for the method and conditions named. Binding seen in cells or lysates may run through a third protein. These calls come from enrichment with a bait or labelling near it, and not all partners need be listed. For part of these data: A no says only that the protein was not detected with the bait. Where a sequence is shown, tags or fusion partners need not be part of it.

Protein sequences, listed by entry. Tags and fused reporters are not part of them. Lines headed by an entry give the natural chain unless they say otherwise; changes in a name come on top.
UniProt Q8C3P7: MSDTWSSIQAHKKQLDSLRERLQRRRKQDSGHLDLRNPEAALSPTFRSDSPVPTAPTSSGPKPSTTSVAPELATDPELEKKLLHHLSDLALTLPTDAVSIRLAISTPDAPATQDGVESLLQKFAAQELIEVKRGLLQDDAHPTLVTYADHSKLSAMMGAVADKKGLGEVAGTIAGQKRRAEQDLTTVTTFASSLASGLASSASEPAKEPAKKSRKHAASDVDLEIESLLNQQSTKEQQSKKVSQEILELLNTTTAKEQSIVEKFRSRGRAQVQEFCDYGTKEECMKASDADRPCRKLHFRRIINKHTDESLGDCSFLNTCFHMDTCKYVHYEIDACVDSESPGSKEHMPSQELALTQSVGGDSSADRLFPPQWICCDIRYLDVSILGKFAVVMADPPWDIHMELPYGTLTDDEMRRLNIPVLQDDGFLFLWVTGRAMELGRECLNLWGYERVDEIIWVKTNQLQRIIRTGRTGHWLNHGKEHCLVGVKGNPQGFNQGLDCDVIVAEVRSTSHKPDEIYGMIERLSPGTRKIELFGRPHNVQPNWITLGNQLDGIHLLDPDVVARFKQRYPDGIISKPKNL
UniProt Q9W1R5: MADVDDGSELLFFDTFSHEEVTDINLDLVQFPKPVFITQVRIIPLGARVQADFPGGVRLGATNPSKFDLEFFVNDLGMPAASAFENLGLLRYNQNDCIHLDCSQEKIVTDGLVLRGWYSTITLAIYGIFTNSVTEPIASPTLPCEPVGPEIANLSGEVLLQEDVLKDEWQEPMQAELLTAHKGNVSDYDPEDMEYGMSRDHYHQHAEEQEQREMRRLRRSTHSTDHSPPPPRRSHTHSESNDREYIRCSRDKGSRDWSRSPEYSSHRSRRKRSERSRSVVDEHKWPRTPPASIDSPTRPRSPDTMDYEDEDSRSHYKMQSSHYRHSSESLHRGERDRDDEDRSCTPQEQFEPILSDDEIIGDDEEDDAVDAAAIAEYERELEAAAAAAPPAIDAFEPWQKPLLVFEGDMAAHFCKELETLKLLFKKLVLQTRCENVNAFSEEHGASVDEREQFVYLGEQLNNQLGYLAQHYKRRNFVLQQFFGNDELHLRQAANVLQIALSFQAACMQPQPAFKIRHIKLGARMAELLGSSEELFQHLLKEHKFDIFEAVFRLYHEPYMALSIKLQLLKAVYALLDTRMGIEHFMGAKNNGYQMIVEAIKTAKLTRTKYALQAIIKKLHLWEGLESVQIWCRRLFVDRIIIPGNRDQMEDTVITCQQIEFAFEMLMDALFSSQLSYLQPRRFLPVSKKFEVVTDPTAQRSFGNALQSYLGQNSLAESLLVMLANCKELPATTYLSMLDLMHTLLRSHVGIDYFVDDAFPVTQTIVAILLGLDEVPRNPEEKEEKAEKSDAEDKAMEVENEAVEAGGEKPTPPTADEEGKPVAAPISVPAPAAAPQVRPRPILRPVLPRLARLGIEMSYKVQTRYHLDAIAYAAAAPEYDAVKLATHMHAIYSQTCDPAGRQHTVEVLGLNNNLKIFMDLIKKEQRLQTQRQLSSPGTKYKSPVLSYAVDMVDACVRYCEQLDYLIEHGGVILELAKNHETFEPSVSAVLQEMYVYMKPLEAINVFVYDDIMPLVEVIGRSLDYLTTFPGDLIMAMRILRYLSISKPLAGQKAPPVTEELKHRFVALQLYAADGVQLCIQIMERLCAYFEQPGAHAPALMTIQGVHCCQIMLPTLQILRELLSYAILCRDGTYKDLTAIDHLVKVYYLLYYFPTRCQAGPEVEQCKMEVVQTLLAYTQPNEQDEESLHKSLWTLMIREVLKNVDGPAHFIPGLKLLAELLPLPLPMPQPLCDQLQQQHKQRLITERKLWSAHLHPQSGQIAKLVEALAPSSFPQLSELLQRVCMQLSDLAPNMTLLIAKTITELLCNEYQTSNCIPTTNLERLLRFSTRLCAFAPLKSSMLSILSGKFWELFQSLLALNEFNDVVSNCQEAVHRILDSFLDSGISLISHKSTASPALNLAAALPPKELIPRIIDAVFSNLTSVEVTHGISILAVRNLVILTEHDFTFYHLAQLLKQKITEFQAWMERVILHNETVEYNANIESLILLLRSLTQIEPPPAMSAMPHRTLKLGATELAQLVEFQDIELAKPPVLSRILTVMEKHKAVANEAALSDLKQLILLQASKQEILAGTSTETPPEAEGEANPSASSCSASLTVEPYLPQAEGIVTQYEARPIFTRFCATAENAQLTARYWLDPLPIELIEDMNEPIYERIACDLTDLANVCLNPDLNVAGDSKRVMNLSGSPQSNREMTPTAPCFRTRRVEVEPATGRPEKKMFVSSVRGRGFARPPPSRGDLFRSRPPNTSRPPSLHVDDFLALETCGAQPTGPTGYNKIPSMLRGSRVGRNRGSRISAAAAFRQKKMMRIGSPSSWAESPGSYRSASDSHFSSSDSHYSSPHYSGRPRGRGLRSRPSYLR
UniProt A2AIV2: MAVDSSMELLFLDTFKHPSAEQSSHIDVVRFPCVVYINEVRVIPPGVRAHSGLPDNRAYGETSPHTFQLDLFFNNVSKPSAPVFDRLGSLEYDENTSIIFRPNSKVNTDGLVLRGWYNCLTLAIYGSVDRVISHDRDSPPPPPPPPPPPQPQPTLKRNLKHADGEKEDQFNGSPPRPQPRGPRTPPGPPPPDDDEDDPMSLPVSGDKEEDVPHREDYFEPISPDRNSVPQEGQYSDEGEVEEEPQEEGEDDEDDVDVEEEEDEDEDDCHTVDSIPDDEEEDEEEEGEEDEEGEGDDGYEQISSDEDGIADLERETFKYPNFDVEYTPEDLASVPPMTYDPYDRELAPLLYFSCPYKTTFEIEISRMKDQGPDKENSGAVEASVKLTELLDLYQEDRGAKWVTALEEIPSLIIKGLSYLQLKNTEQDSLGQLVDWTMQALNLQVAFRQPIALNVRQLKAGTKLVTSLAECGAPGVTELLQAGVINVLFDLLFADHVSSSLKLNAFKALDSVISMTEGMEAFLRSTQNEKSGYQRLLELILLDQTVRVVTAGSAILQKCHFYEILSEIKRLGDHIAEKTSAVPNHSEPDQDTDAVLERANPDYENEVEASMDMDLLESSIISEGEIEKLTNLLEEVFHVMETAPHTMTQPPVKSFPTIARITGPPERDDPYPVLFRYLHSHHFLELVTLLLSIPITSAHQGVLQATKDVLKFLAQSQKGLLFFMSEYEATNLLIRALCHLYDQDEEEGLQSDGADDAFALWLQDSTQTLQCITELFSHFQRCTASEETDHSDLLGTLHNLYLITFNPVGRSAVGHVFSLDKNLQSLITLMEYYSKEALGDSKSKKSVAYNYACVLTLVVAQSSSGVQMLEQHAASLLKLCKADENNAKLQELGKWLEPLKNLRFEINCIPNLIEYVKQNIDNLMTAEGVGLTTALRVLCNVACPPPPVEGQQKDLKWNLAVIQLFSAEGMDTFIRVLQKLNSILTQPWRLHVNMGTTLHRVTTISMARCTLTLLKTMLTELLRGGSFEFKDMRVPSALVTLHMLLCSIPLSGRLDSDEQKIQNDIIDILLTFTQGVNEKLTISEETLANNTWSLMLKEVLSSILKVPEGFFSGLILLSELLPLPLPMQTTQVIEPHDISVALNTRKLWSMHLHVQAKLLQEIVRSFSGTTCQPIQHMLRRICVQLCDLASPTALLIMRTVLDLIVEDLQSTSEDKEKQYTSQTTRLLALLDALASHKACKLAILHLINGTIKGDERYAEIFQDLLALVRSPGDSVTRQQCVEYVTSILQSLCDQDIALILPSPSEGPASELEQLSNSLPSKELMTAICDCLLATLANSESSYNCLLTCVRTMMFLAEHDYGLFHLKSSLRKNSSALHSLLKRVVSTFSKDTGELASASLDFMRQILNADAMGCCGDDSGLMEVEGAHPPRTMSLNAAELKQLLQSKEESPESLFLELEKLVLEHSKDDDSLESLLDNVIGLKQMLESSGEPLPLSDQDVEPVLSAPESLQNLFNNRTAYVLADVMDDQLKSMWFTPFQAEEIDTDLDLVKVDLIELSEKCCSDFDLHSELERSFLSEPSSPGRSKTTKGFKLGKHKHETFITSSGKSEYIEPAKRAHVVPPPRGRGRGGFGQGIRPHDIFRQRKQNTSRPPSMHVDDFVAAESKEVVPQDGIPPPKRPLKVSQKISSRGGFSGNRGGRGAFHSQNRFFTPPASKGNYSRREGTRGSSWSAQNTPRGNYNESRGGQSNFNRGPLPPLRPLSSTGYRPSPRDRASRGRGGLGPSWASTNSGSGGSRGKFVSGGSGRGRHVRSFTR
UniProt E9Q784: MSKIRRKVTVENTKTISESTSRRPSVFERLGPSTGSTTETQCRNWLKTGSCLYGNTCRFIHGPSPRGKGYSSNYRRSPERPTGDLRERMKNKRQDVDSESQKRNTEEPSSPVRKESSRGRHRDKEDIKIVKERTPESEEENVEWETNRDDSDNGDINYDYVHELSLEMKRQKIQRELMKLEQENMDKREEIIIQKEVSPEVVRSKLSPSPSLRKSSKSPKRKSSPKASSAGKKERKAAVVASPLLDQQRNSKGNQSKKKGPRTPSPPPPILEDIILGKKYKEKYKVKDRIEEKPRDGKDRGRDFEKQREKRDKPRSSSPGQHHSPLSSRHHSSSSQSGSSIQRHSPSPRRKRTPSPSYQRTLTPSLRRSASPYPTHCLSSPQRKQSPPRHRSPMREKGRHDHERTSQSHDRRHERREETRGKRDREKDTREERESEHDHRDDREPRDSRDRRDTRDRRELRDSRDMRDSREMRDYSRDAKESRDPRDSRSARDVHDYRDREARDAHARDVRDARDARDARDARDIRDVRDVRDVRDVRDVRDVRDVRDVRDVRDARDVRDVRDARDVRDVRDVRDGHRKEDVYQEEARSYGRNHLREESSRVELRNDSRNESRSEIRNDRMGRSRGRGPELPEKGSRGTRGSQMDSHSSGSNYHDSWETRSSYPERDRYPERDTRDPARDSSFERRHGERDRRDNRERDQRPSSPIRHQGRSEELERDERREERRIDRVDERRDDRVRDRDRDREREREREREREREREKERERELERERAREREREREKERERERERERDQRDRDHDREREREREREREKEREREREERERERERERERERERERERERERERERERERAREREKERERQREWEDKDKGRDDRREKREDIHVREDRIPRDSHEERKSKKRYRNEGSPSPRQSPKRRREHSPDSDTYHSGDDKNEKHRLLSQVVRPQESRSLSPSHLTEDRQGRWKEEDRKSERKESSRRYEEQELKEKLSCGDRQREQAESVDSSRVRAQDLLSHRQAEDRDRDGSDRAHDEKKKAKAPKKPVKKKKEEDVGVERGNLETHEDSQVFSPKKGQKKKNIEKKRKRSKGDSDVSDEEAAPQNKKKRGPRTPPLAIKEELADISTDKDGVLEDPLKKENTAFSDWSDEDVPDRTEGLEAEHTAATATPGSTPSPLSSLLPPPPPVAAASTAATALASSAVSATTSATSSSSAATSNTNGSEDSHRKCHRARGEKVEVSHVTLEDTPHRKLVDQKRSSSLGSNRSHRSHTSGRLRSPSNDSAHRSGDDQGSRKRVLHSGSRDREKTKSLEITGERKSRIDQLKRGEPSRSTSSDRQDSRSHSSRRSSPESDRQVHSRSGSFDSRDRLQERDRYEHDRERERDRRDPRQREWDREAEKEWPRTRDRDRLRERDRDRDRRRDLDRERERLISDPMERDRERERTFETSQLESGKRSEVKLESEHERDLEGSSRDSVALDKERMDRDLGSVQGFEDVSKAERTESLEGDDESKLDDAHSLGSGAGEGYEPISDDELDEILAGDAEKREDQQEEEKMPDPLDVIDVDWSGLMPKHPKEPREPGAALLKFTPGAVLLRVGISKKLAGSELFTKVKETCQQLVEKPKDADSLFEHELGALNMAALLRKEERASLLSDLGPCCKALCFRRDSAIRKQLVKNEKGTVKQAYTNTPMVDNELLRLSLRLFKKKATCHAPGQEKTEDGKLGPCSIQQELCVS

T1: Rbm15, endogenously Flag-Avi-tagged (mouse (endogenous in mESCs)) (UniProt Q0VBL3)
T1 sequence: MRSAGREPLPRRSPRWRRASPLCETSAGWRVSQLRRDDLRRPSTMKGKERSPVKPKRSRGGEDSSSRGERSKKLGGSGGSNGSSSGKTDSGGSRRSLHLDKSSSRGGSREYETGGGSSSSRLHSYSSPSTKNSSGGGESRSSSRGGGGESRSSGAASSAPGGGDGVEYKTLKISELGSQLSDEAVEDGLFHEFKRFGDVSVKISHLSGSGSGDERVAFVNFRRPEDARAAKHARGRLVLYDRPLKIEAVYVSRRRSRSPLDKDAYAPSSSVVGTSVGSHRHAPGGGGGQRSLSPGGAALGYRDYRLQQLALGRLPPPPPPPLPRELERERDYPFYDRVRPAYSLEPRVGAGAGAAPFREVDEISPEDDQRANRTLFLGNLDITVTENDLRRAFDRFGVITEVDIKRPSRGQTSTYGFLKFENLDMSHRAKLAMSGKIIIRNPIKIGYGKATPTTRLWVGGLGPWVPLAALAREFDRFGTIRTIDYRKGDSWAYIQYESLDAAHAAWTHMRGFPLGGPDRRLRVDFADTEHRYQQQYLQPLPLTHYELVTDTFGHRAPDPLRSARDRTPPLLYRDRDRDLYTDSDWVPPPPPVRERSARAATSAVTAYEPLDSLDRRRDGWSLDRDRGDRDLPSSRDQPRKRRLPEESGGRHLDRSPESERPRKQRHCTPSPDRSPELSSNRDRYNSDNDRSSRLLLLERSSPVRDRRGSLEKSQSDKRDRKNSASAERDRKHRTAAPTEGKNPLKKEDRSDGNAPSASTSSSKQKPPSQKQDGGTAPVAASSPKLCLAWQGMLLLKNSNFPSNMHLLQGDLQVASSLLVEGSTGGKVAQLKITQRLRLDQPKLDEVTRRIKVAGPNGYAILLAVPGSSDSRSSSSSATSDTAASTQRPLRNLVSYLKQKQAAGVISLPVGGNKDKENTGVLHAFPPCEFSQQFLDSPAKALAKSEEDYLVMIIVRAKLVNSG

T2: Myc-tagged Nito (Spenito) (D. melanogaster) (UniProt Q7KMJ6)
T2 sequence: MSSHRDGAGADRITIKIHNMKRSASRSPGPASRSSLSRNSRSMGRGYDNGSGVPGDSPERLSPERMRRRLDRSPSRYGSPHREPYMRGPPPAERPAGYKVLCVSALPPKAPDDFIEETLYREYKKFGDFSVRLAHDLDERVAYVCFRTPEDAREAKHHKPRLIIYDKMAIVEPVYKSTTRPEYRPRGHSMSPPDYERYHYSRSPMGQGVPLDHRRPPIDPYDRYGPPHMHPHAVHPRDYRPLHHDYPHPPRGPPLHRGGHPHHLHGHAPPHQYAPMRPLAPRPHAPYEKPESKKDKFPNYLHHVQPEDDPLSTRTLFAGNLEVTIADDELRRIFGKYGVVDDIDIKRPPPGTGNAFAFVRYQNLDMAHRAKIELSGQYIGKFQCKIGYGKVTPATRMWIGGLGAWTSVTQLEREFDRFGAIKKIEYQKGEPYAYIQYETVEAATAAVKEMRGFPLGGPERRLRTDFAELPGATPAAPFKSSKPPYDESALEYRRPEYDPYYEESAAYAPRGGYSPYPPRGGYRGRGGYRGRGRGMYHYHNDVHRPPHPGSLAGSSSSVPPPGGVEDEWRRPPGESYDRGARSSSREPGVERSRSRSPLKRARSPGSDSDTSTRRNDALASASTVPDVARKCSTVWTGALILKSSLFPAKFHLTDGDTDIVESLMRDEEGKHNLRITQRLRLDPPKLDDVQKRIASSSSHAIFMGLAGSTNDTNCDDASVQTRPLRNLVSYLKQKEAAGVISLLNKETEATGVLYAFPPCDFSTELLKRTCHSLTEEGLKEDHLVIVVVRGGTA


Experiments:
[1] = biological target: T1, Rbm15, endogenously Flag-Avi-tagged (mouse (endogenous in mESCs)); experiment: affinity purification with mass spectrometry; TAP-LC-MS/MS: endogenous Flag-Avi-Rbm15 from wild-type mESC lysate on Flag M2 beads, 3xFlag elution, then streptavidin beads; 350 mM NaCl; parental cells as background control
[2] = biological target: T2, Myc-tagged Nito (Spenito) (D. melanogaster); experiment: affinity purification with mass spectrometry; SILAC: Myc-Nito or Myc alone transfected in heavy or light S2R+ cells (forward and reverse), anti-Myc immunoprecipitation, threshold 1.5-fold enrichment
[3] = biological target: Mettl3 (methyltransferase-like 3), endogenously Flag-Avi-tagged, mouse (mouse (endogenous in mESCs)) (UniProt Q8C3P7); experiment: affinity purification with mass spectrometry; TAP-LC-MS: endogenous Flag-Avi-Mettl3 from mESC lysate, Flag then streptavidin beads; NaCl up to 350 mM
[4] = biological target: Mettl3 (methyltransferase-like 3), endogenously Flag-Avi-tagged, mouse (mouse (endogenous in mESCs)) (UniProt Q8C3P7); experiment: affinity purification with mass spectrometry; TAP-LC-MS: endogenous Flag-Avi-Mettl3 from mESC lysate, Flag then streptavidin beads; 500 mM NaCl

Row | Molecule | binding [1] | binding [2] | binding [3] | binding [4]
1 | Virilizer (Vir), endogenous in S2R+ cells (from UniProt Q9W1R5 1-1854) |  | binds |  | 
2 | Rbm15, mouse, endogenous untagged (protein, UniProt Q0VBL3 1-962) MRSAGREPLPRRSPRWRRASPLCETSAGWRVSQLRRDDLRRPSTMKGKERSPVKPKRSRGGEDSSSRGERSKKLGGSGGSNGSSSGKTDSGGSRRSLHLDKSSSRGGSREYETGGGSSSSRLHSYSSPSTKNSSGGGESRSSSRGGGGESRSSGAASSAPGGGDGVEYKTLKISELGSQLSDEAVEDGLFHEFKRFGDVSVKISHLSGSGSGDERVAFVNFRRPEDARAAKHARGRLVLYDRPLKIEAVYVSRRRSRSPLDKDAYAPSSSVVGTSVGSHRHAPGGGGGQRSLSPGGAALGYRDYRLQQLALGRLPPPPPPPLPRELERERDYPFYDRVRPAYSLEPRVGAGAGAAPFREVDEISPEDDQRANRTLFLGNLDITVTENDLRRAFDRFGVITEVDIKRPSRGQTSTYGFLKFENLDMSHRAKLAMSGKIIIRNPIKIGYGKATPTTRLWVGGLGPWVPLAALAREFDRFGTIRTIDYRKGDSWAYIQYESLDAAHAAWTHMRGFPLGGPDRRLRVDFADTEHRYQQQYLQPLPLTHYELVTDTFGHRAPDPLRSARDRTPPLLYRDRDRDLYTDSDWVPPPPPVRERSARAATSAVTAYEPLDSLDRRRDGWSLDRDRGDRDLPSSRDQPRKRRLPEESGGRHLDRSPESERPRKQRHCTPSPDRSPELSSNRDRYNSDNDRSSRLLLLERSSPVRDRRGSLEKSQSDKRDRKNSASAERDRKHRTAAPTEGKNPLKKEDRSDGNAPSASTSSSKQKPPSQKQDGGTAPVAASSPKLCLAWQGMLLLKNSNFPSNMHLLQGDLQVASSLLVEGSTGGKVAQLKITQRLRLDQPKLDEVTRRIKVAGPNGYAILLAVPGSSDSRSSSSSATSDTAASTQRPLRNLVSYLKQKQAAGVISLPVGGNKDKENTGVLHAFPPCEFSQQFLDSPAKALAKSEEDYLVMIIVRAKLVNSG |  |  | binds weakly | no binding (only 500 mM NaCl)
3 | Hakai (mouse) (protein, UniProt Q9JIY2 1-491) MDHTDNELQGTNSSGSLGGLDVRRRIPIKLISKQASKVKPAPRTQRTVSRMPAKAPQGDEEGFDYNEEQRYDCKGGELFGNQRRFPGHLFWDFKINILGEKDDTPVHFCDKCGLPIKVYGRMIPCKHVFCYDCAILHEKKGDKMCPGCSDPVQRIEQCTRGSLFMCSIVQGCKRTYLSQRDLQAHINHRHMRAGKPVTRASLENVHPPIAPPPTDIPDRFIMPPDKHHMSHIPPKQHIMMPPPPLQHVPHEHYNQPHEDIRAPPAELSMAPPPPRSVSQETFRISTRKHSNLITVPIQDDSSSGAREPPPPAPAPAHHHPEYQGQPVVSHPHHIMPPQQHYAPPPPPPPPISHPMPHPPQAAGTPHLVYSQAPPPPMTSAPPPITPPPGHIIAQMPPYMNHPPPGPPPPQHGGPPVTAPPPHHYNPNSLPQFTEDQGTLSPPFTQPGGMSPGIWPAPRGPPPPPRMQGPPSQTPLPGPHHPDQTRYRPYYQ | binds |  | binds weakly | no binding (only 500 mM NaCl)
4 | Flacc [Fl(2)d-associated complex component], endogenous in S2R+ cells (protein, UniProt Q9VWN4 1-1150) MEKKAKESLRRYKKAARHSATHSSSSDSTSDSDSGSSSYSSTDSEQGVGGVGVGVGVPGGAGGPGGSGSVHGHPHTHGHGHHPRSAERHHRKKKSSRRGGSSSGDEPSSSRRKRDKRDHVQKKLVAKRNHIKRKLKEARLKKRAAAALSGHVHRSLSPTTRAKLKKLAERKRLRAASKEQRERDKLRVVQRDRERDHHRLGSSRSPPSSSTTTTTKIRIHQDIVGKRQKSPGLGSGLGGGSSSSSSRMHHQLMSREKIIIQTRARGRTPSLERERERERERERERERERHDLSLRERDRRDRERERAEREAARDKERAEALARCQERQRERERLAREKLRRQEEEEGGKRGGPGRDLDLPPYGSRERSLDTVERERERERSGRHVRDKRELDPYEREQEYLEERHGHGLIDEMRRYRRRDLSPMPEHYAPRLRDPRELYSEEERERAYKRAYLDARYSSREREAWLEARELRERELQGREYRDLETEDTLYPDERERLIRDRERDRERERDRERERNIGPRGDFRPEWEREWEEEGAGGGPGGPSGTPGRPGGFVGGPKRGKPPAHAGGGPPSQQQHHSASEPDWDADERERERERERDRERERDREDRPDTGGGGAGGDRPSIKNEPAWLEHDQREKPRGWQQQSSNSGGDWRDNDDAPPAPSHPHPASPHHHVHPRGERGSGRGFRRGGHGHGDHGERPGYRSHPPPLMTLPVQPPGGYSRGFPHKRLPYGSGRDGAALGARDGGLPGSSTFLKKHTHAPLVSPTQTPLLNPLLNAAKPNAAAQASAVAAATTAVAAAKAAAQSAANATTNPGILAQVSKLNTVCIKQEDASEDSAGTPELGAQDSPTQSLNLNQSLSSEGNPVKQELIRTSAVEGELSEISDSDDDILNKTDKVRPKNELPTETEQEMDTNADEVKSEALHIVAGHPIKGEEGDEVLDFEEISDGELEEDARHKGIGDALGVDWQGLIAETRQQASDAQAAQQGVDRGTSAKQRWQPYRVLLDLGISFGMAGEGYARCVMEEARQQLLQEKEQGQQRELDGDEEPPAKIPSPLLDYREFLASQQQLEPLACVQMGLRSAAVERQRLVGNVCGPGSRALSARQDLRLRRQLCGLPARECEFPRSVPIVGEGLRNLAMQMFQRRLLDVK |  | binds |  | 
5 | Hakai (Drosophila), endogenous in S2R+ cells (protein, UniProt M9PBE2 1-473) MDTEEVKRGRGRGRGTRARGRGRGRGRGRGKKIDDSSIADAAALAASSCAALEDSPGRLDASEDSVMQELDKDGELETPGALEEPLPHGALGAVAASGNMTPATQQPQVLQQVPPPVMSQTTISLSLARAVDMEADISQLEAPTFTTLSRGPPEPMLRLKWNHKVSLIGEKVLNPMIHCCDQCDKPILVYGRMIPCKHVFCLKCARAEPIKSCPRCTDKVLRVEQSGLGTVFMCTHGGSRYGSSGCRRTYLSQRDLQAHINHRHVAPQPPPLQPQPQLSAMAEQPKMTDLGGVGLGLELHKQRKLSESSVPISVSASIASRPVLSRLPLTGGVGNIGSIGSIPPPGSAAAAQNAIHGGHSTLTLANLTRINNANAQECHQGKASLHHTLKKGTPHQSESVADASYYSSVLASFGSAAGNPGSGPPGGGATAAAQPANPSGSHSAVGPGALIGGSTDAPTGGSSGNWQQSQYYR |  | binds |  | 

Other lines, results leading:

Row | binding [1] | binding [2] | binding [3] | binding [4] | Molecule
6 | binds |  |  |  | Virma (Vir-like m6A methyltransferase-associated) (from UniProt A2AIV2 1-1811)
7 | binds |  | binds weakly | no binding (only 500 mM NaCl) | Zc3h13 (zinc finger CCCH domain-containing protein 13), mouse (from UniProt E9Q784 1-1729)
